Assay results as given in EP1662255A2 (THE JOHNS HOPKINS UNIVERSITY SCHOOL OF MEDICINE, dated 2006).
No constants are given. Whether binding was seen depends on the method and setting. In cells and extracts the contact can be indirect. Binding can be weak; no strength is given. Where a sequence is shown, tags or fusion partners need not be part of it.

Biological target: T1, carboxy-terminal 347 amino acids of GKAP-3 (amino-terminal myc tag) (rat) (UniProt P97838)
T1 sequence (looked up): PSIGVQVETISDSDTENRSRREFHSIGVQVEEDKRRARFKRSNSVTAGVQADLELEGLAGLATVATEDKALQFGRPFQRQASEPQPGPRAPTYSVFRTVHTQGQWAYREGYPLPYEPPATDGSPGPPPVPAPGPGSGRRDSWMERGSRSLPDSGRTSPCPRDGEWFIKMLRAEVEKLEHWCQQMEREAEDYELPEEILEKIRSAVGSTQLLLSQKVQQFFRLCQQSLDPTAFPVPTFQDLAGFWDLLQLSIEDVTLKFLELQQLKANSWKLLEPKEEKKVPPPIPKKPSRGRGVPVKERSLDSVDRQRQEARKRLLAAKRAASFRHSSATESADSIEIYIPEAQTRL
Test: GST pulldown from HEK293 lysate

binding: binds
Substance: GST fusion of Shank3 PDZ domain (residues 559-673)
